# Reference: patent US4103005A (Hoffmann-La Roche Inc., priority 1977, dated 1978)
# Strings that start with PEPTIDE1 are HELM notation: dots part the residues, brackets hold end groups and non-standard residues.
# Test: general procedure: Boc solid-phase peptide synthesis; Benzhydrylamine resin (0.51 mmole N/g, Beckman); symmetrical anhydride by dicyclohexylcarbodiimide
# Details: whole synthesis, scale of the general procedure 1.505 g resin, divided in half after Gly
substance,measurement,value
PEPTIDE1{Y.[dM].G.F.[Thz].[am]}$$$$V2.0,difficulty met,isolation of the deletion peptide H-Tyr-D-Met-Gly-Thz-NH2 during partition chromatography
